PubChem BioAssay AID504804, Drosophila RNAi Screening Center, 2011
The screen tested about 19,000 reagents; this is a random part of those that have a named target and a result. In the full data, 47 (0.25%) were called active. 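Signals are raw, not normalised; exact z-scores behind calls not deposited; actives needed confirmation, so some wells reaching 2 SD are inactive.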 A plus sign joins genes that one reagent is predicted to hit.

Aim: 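Fly genes whose loss lessens doxorubicin-driven cell death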 (primary screen)
Cell system: Drosophila Kc cells
Reagent: long dsRNA against Drosophila genes, 0.5 µg dsRNA per well
Duration: 96 h (48 h knock-down, then 48 h drug)
Treatment: doxorubicin 5 µg/ml for 48 h, added 48 h after dsRNA
Measurement: 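Viability measured as cellular ATP by luminescence after 48 h knock-down then 48 h doxorubicin at 5 µg/ml; unnormalised plate counts for each replicate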
Reading the numbers: raw ATP luminescence: higher = more viable cells, protection from doxorubicin
Active means: 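z-score of 2 or more over plate mean in both duplicates, retained only when retests and separate dsRNAs confirm the protection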

| target gene | dsRNA | SD above plate mean | raw ATP luminescence, replicate 1 | raw ATP luminescence, replicate 2 | Call |
| --- | --- | --- | --- | --- | --- |
| Polr2F | DRSC12366 | – | 48330 | 46453 | inactive |
| CAH8 | DRSC15784 | – | 82400 | 46600 | inactive |
| Ipk1 | DRSC04235 | – | 71917 | 59700 | inactive |
| Ipk1 | DRSC04236 | – | 67473 | 54040 | inactive |
| Ipk1 | DRSC04237 | – | 73567 | 54940 | inactive |
| LRR | DRSC06444 | – | 47493 | 81210 | inactive |
| CG15262 | DRSC01975 | – | 58383 | 67797 | inactive |
| Ucp4B | DRSC02665 | – | 32913 | 40077 | inactive |
| CG31777 | DRSC00201 | – | 2.11e5 | 2.36e5 | inactive |
| CG13674 | DRSC10033 | – | 54490 | 90057 | inactive |
| CG32772 | DRSC18052 | – | 55740 | 72480 | inactive |
| lncRNA:CR32553 | DRSC19229 | – | 2.09e5 | 2.03e5 | inactive |
| CG17032 | DRSC10241 | – | 45580 | 34937 | inactive |
| gskt | DRSC14056 | – | 2.43e5 | 2.66e5 | inactive |
| dnd | DRSC16064 | – | 61140 | 78450 | inactive |
| ssp | DRSC10252 | – | 38663 | 36123 | inactive |
| Cox10 | DRSC02804 | – | 80037 | 52227 | inactive |
| CG31639 | DRSC00910 | – | 2.56e5 | 2.64e5 | inactive |
| tpr | DRSC04468 | – | 66283 | 77140 | inactive |
| ato | DRSC16904 | – | 54473 | 48660 | inactive |
| Coop | DRSC06604 | – | 85467 | 44293 | inactive |
| CycC | DRSC16619 | – | 60017 | 24120 | inactive |
| CG9775 | DRSC12330 | – | 19760 | 28340 | inactive |
| Grl58a | DRSC04145 | – | 59597 | 44860 | inactive |
| CG5762 | DRSC15869 | – | 52597 | 57940 | inactive |
| Atf-2 | DRSC04130 | – | 69523 | 44000 | inactive |
| Atf-2 | DRSC04413 | – | 1.64e5 | 1.50e5 | inactive |
| CG31740 | DRSC01619 | – | 2.95e5 | 2.87e5 | inactive |
| CG5968 | DRSC02916 | – | 32863 | 42380 | inactive |
| Acp53C14c | DRSC05626 | – | 1.70e5 | 1.43e5 | inactive |
| nod | DRSC18900 | – | 2.07e5 | 2.18e5 | inactive |
| CG31213 | DRSC14312 | – | 18220 | 18730 | inactive |
| CG31213 | DRSC15647 | – | 17910 | 25460 | inactive |
| CG12782 | DRSC04127 | – | 39253 | 46100 | inactive |
| CG32176 | DRSC10057 | – | 31570 | 33713 | inactive |
| CG32176 | DRSC10058 | – | 52340 | 41980 | inactive |
| Oatp26F | DRSC02149 | – | 24387 | 33180 | inactive |
| Oatp26F | DRSC02272 | – | 19977 | 21353 | inactive |
| Oatp26F | DRSC02695 | – | 26577 | 21570 | inactive |
| CG34005 | DRSC05700 | – | 53777 | 56613 | inactive |
| Obp58c | DRSC04166 | – | 42673 | 51100 | inactive |
| ND-B14.5AL | DRSC11795 | – | 57697 | 45000 | inactive |
| CG8785 | DRSC07266 | – | 65963 | 62407 | inactive |
| CG33337 | DRSC13632 | – | 2.29e5 | 1.99e5 | inactive |
| Grip163 | DRSC10538 | – | 78617 | 74377 | inactive |
| CG33290 | DRSC11493 | – | 62737 | 68833 | inactive |
| CG7914 | DRSC20068 | – | 3.27e5 | 3.14e5 | inactive |
| b6 | DRSC18740 | – | 37430 | 46510 | inactive |
| SAK | DRSC11879 | – | 64853 | 66453 | inactive |
| CG40245 (retired record) | DRSC21012 | – | 1.98e5 | 2.21e5 | inactive |
| ATP6AP2 | DRSC16420 | – | 54727 | 55593 | inactive |
| qkr58E-3 | DRSC04711 | – | 62070 | 65967 | inactive |
| CG32631 | DRSC19768 | 2 to 3 SD above plate mean | – | – | inactive |
| Ca-beta | DRSC02406 | – | 32830 | 67437 | inactive |
| Ca-beta | DRSC02407 | – | 42457 | 72437 | inactive |
| Ca-beta | DRSC03285 | – | 36523 | 79560 | inactive |
| barc | DRSC11792 | – | 30307 | 28247 | inactive |
| CG14451 | DRSC11708 | – | 57700 | 48747 | inactive |
| NdufA3 | DRSC18431 | – | 2.95e5 | 2.70e5 | inactive |
| CG10163 | DRSC09710 | – | 1.08e5 | 99550 | inactive |
| Scox | DRSC03117 | – | 32047 | 38043 | inactive |
| Wnt2 | DRSC05160 | – | 89313 | 78377 | inactive |
| Wnt2 | DRSC07574 | – | 44837 | 69053 | inactive |
| Myo28B1 | DRSC03375 | – | 27573 | 28503 | inactive |
| Tim10 + CG42497 | DRSC04664 | – | 67903 | 65640 | inactive |
| FMRFa | DRSC07428 | – | 43110 | 85500 | inactive |
| TwdlC | DRSC14749 | – | 47100 | 36650 | inactive |
| Taf5 | DRSC07562 | – | 57430 | 46827 | inactive |
| Sr-CI | DRSC00790 | – | 1.65e5 | 2.23e5 | inactive |
| CG13991 | DRSC02323 | – | 24177 | 27637 | inactive |
| CG34330 | DRSC20043 | – | 3.68e5 | 3.08e5 | inactive |
| Ak3 | DRSC16075 | – | 49030 | 52337 | inactive |
| Nagk | DRSC15994 | – | 37843 | 22513 | inactive |
| tsg | DRSC20380 | – | 3.54e5 | 3.04e5 | inactive |
| CG32428 | DRSC11697 | – | 23737 | 16310 | inactive |
| CG32428 | DRSC11768 | – | 79730 | 87763 | inactive |
| Mnt | DRSC18480 | – | 36580 | 47680 | inactive |
| snoRNA:Me28S-C3227a + snoRNA:Me18S-A1061 + snoRNA:Me28S-C3227b + 7 more | DRSC05497 | – | 1.00e5 | 1.08e5 | inactive |
| mrt | DRSC15484 | – | 51350 | 44350 | inactive |
| ppk10 | DRSC01123 | – | 3.28e5 | 3.33e5 | inactive |
| DIP-theta | DRSC00885 | – | 3.06e5 | 2.68e5 | inactive |
| DIP-theta | DRSC02340 | – | 24047 | 23200 | inactive |
| DIP-theta | DRSC02341 | – | 22530 | 28480 | inactive |
| CG33155 + mRpL53 | DRSC05461 | – | 85270 | 1.14e5 | inactive |
| Ddrgk1 | DRSC15897 | – | 40577 | 33647 | inactive |
| CG9628 | DRSC11082 | – | 17153 | 20557 | inactive |
| Pld3 | DRSC03167 | – | 87727 | 75743 | inactive |
| CG16779 | DRSC15153 | – | 65403 | 42180 | inactive |
| Nup98-96 | DRSC14209 | – | 29790 | 34627 | inactive |
| Nup98-96 | DRSC14210 | – | 39330 | 46720 | inactive |
| Pkd2 | DRSC02962 | – | 76840 | 63517 | inactive |
| mei-9 | DRSC18792 | – | 43420 | 47690 | inactive |
| CG6984 | DRSC07013 | – | 71603 | 73183 | inactive |
| CG33060 | DRSC09939 | – | 49010 | 40613 | inactive |
| Trs31 | DRSC05975 | – | 60827 | 48303 | inactive |
| pip | DRSC11382 | – | 69500 | 68720 | inactive |
| PGRP-SD | DRSC10856 | – | 82663 | 82143 | inactive |
| Pldn | DRSC10137 | – | 70273 | 68487 | inactive |
| Wdr92 | DRSC10187 | – | 83883 | 64690 | inactive |
| CG31251 | DRSC16247 | – | 38000 | 28370 | inactive |
| rumpel | DRSC18436 | – | 50530 | 55920 | inactive |
| Cdc7 | DRSC18428 | – | 31570 | 30950 | inactive |
| Cdc7 | DRSC18429 | – | 23980 | 39940 | inactive |
| TwdlF | DRSC12225 | – | 32517 | 25530 | inactive |
| Aldh | DRSC02717 | – | 38600 | 78530 | inactive |
| Iml1 | DRSC08249 | – | 49547 | 52733 | inactive |
| CG32240 | DRSC08093 | – | 1.60e5 | 1.14e5 | inactive |

8 consecutive entries from above:
| target gene | dsRNA | SD above plate mean | raw ATP luminescence, replicate 1 | raw ATP luminescence, replicate 2 | Call |
| --- | --- | --- | --- | --- | --- |
| CG33060 | DRSC09939 | – | 49010 | 40613 | inactive |
| Trs31 | DRSC05975 | – | 60827 | 48303 | inactive |
| pip | DRSC11382 | – | 69500 | 68720 | inactive |
| PGRP-SD | DRSC10856 | – | 82663 | 82143 | inactive |
| Pldn | DRSC10137 | – | 70273 | 68487 | inactive |
| Wdr92 | DRSC10187 | – | 83883 | 64690 | inactive |
| CG31251 | DRSC16247 | – | 38000 | 28370 | inactive |
| rumpel | DRSC18436 | – | 50530 | 55920 | inactive |
